In patent US20220144921A1 one finds binding data, which are given here for 2 molecules.

These are yes or no findings as the source states them, for the method shown. Some results given as binding are weak or reduced against the parent protein; the word gives no strength.

The target in experiment [1] is unfused recombinant non-structural protein 1 of DENV4 (Dengue virus serotype 4) (UniProt P09866). In words: NS1 capture ELISA, detection antibody.
For experiment [2], the target named is native NS1 in culture supernatant of DENV4-infected Vero cells (Dengue virus serotype 4) (UniProt P09866). Nature of the experiment: NS1 capture ELISA, biotinylated 6D4B10 as detector antibody. For orientation: In an ELISA, binding on a coated surface is turned into a signal by an enzyme label.
The target of experiment [3] is unfused recombinant non-structural protein 1 of DENV4 (Dengue virus serotype 4) (UniProt P09866). The description is as above.
Experiment [4] has the same target. Nature of the experiment: direct ELISA on coated DENV4 rNS1 (data not shown).

B1: biotinylated MAb 6D4B10 (antibody, V domains shown)
VH: EVQLQQSGPELVKPGASVKMSCKASGYTFTSYVMHWVKQKPGQGLEWIGYLNPYNDDTKYNEKFKGKATLTSDKSSSTAYMELSSLTSEDSAVYYCAYGPPYALDYWGQGTSVTVSS
VL: QIVLTQSPAIMTASLGERVTMTCTASSSVSSSYLHWYQQKPGSSPKLWIYSTSNLASGVPARFSGSGSGTSYSLTISSMEAEDAATYYCHQYHRSPYTFGGGTKLEIK
Consider B1, for which the binding result in experiment [1], in experiment [2] and in experiment [3] was “binds” throughout.

B2: biotinylated MAb 8A6F2 (antibody, V domains shown)
VH: DVQLQESGPDLVKPSQSLSLTCTVTGYSITSGYNWHWIRQFPGNKLEWMGYIHYSGGTNYNPSLKSRISITRDTSKNQFFLQLNSVTTEDTATYYCARRTGTVPFAYWGQGTLVTVSA
VL: EIVLTQSPALMAASPGEKVTITCSVSSSISSSNLHWYQQKSETSPKPWIYGTSNLASGVPVRFSGSGSGTSYSLTISSMEAEDAATYYCQQWSSYPLTFGGGTKLEIK
Regarding B2, the binding entry in experiment [4] is recorded as “binds”.
